Measurements reported in PubChem BioAssay AID651702 (NMMLSC, 2012).
Among all 360,000 compounds or so, about 2,400 (0.67%) were called active. This list was built around the results that the source calls inconclusive (neither active nor inactive); the mix of calls is not that of the screen.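 Rule for the calls: active = inhibition above about 55% (limit read from the data); inconclusive = no clear call, values can overlap the other calls; inactive = the rest.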

Assay: LAMP-1 surface exposure blockers, TALL-104 cells – cell-based, flow cytometry, MLPCN library, primary screen (AID 651702)
Conditions: TALL-104 LAMP-1 surface exposure, cells stimulated with thapsigargin and PMA; at 10 µM, hits give high values
With `O=C1Nc2ccccc2/C1=N/N=C/c1cccc(O)c1` the inhibition was “inconclusive”. In the case of `CC1(C)CC(=O)C(=Cc2cn(-c3ccccc3)nc2-c2ccccc2)C(=O)C1`, the inhibition was active: 55.9%. In the case of `Cc1ccc(/C=C/C(=O)c2ccccc2O)cc1`, the inhibition was inactive: -2.9%. For `CC(C)n1nc(C(=O)NCCc2ccc(S(N)(=O)=O)cc2)c2ccccc2c1=O`, the inhibition was “inconclusive”. In the case of `Cc1ccc(NC(=O)c2cc(C)n(-c3ccccc3)c2C)cc1`, the inhibition was “inconclusive”. For `CN1/C(=C\C=N\NC(=O)c2ccc(O)cc2)C(C)(C)c2ccccc21`, the inhibition was inactive: 3.5%. With `COc1ccc(OC)c(C2=Nn3c(nnc3-c3ccncc3)SC2)c1` the inhibition was active: 64.3%. In the case of `COc1ccc(-c2cc(-c3ccccc3)no2)cc1`, the inhibition was inactive: -5.2%. With `O=C(O)c1cccc(-c2ccc(/C=C3/SC(=Nc4ccccc4)N(Cc4cccnc4)C3=O)o2)c1` the inhibition was “inconclusive”. With `O=C(N/N=C/c1ccc2c(c1)OCO2)c1ccc(NC(=O)c2ccccc2Cl)cc1` the inhibition was “inconclusive”. With `CC(C)(C)c1ccc(C(=O)NCCCNC(=O)c2ccccn2)cc1` the inhibition was “inconclusive”. For `COc1cc(C(C)=O)ccc1OCCN1CCC(Cc2ccccc2)CC1`, the inhibition was active: 56.5%. For `COc1ccccc1CNS(=O)(=O)c1c(C)nc2scc(C)n2c1=O`, the inhibition was “inconclusive”. With `S=C(Nc1ccc(Cl)c(Cl)c1)N1CCN(c2ccccn2)CC1` the inhibition was inactive: 18.6%. For `OCCN1CCN(c2nc(-c3ccccc3O)nc3ccccc23)CC1`, the inhibition was “inconclusive”. For `CC(O)(c1ccc(F)c(F)c1)c1nc(-c2ccc3ccccc3c2)cs1` (configuration not stated), the inhibition was “inconclusive”. In the case of `CC(=O)Oc1c(S(=O)(=O)c2ccc(C)cc2)c(C)nn1-c1ccccc1`, the inhibition was “inconclusive”. In the case of `CC(C)Cn1c(SCC(=O)N2CCN(S(=O)(=O)c3ccccc3)CC2)nc2ccccc21`, the inhibition was inactive: -1.2%. For `C=CCNS(=O)(=O)c1nc(C)c(Cl)c(C)c1C#N`, the inhibition was “inconclusive”. For `Cc1ccc(C23CC4CC(CC(C(=O)NCC(=O)O)(C4)C2)C3)cc1`, the inhibition was “inconclusive”. In the case of `COc1ccc(F)cc1-c1cc(NC(C)=O)c2ncc(-c3cccc(C(F)(F)F)c3)n2c1`, the inhibition was active: 58.3%. For `COc1ccc(C)cc1NC(=O)CCN1CCN(c2ccccc2F)CC1`, the inhibition was inactive: 9.6%. For `Cc1ccc(OCC(=O)N2CCc3ccccc3C2)c(Br)c1`, the inhibition was “inconclusive”. With `COCCNC(=O)COc1ccc(C)cc1C` the inhibition was “inconclusive”. With `CCOc1ccc(NC(=O)CCNC(=O)Cn2ccc3ccccc3c2=O)cc1` the inhibition was “inconclusive”. For `Cc1ccc(C)c(NC(=O)CN2C(=O)COc3ccc(S(=O)(=O)N4CCCC4)cc32)c1`, the inhibition was “inconclusive”. For `Clc1cccc(Cc2c(-c3ccco3)nc3c4ccccc4ccn23)c1`, the inhibition was active: 96.5%. With `Cc1nn(CC(=O)NCCCN2CC(C)CC(C)C2)c(=O)c2cccn12` (configuration not stated) the inhibition was “inconclusive”. In the case of `COc1ccc(CCNc2nc3ccc(C)cc3n3cnnc23)cc1OC`, the inhibition was “inconclusive”. With `C=CC[C@H](CC(=O)NCCO)C(=O)N[C@H](COC(=O)[C@@H](CC=C)CC(=O)OC(C)(C)C)Cc1ccccc1` the inhibition was inactive: 1.7%. For `O=C1C=C(c2c(O)ccc3ccccc23)c2ccccc2C1=O`, the inhibition was active: 104%. For `CC(=O)Nc1ccc2sn(-c3ccccc3)c(=O)c2c1`, the inhibition was active: 59.8%. For `COc1ccccc1OCC(=O)NNC(=S)NC(=O)c1ccco1`, the inhibition was inactive: 1.1%. With `COC(=O)CN1C(=O)C(C)(C)Oc2ccc(C(=O)Nc3ccccc3F)cc21` the inhibition was “inconclusive”. For `COC(=O)c1c(NC(=O)CSc2nnc(CNc3ccc(Cl)cc3)o2)sc(C)c1C`, the inhibition was active: 91.7%. In the case of `COc1cccc2sc3ccc(C#CC4(N)CCCCC4)cc3c(=O)c12`, the inhibition was inactive: 2.2%. With `COc1ccc(NC(=O)COC(=O)c2ccncc2)c(OC)c1` the inhibition was “inconclusive”. For `O=C(Nc1nc2ccccc2[nH]1)c1ccc(Cl)c(S(=O)(=O)N2CCCC2)c1`, the inhibition was inactive: 2.3%. For `CCOC(=O)NN1C(=O)c2ccccc2NC1c1cccc(O)c1` (configuration not stated), the inhibition was “inconclusive”. In the case of `CCOC(=O)CSc1nc2sc3c(c2c(=O)n1-c1ccc(OCC)cc1)CCN(C)C3`, the inhibition was inactive: 4.9%. In the case of `COc1cc(NC(=O)COc2ccc(C)c(C)c2)ccc1NC(=O)c1ccco1`, the inhibition was “inconclusive”. With `O=[N+]([O-])c1ccc(N2CCN(CCO)CC2)cc1Sc1nc2ccccc2[nH]1` the inhibition was inactive: 0.6%. In the case of `CN1C(=O)C(=O)/C(=C(/O)c2ccccc2)C1c1ccccc1` (configuration not stated), the inhibition was “inconclusive”. With `CCc1ccccc1Oc1nc(NCc2ccccc2)nc2ccsc12` the inhibition was “inconclusive”. In the case of `O=C1C2C(C(=O)N1/N=C/c1cc([N+](=O)[O-])c(O)cc1O)C1C=CC2C12CC2` (configuration not stated), the inhibition was “inconclusive”. In the case of `COc1ccc(C(=O)N2CCN(C(=O)c3ccco3)CC2)cc1`, the inhibition was “inconclusive”. In the case of `O=S(=O)(Cc1ccc(Cl)cc1)NCc1ccc2c(c1)OCO2`, the inhibition was inactive: -1.5%. With `Cn1c(=O)c2[nH]c(N=NN3CCCCC3)nc2n(C)c1=O` the inhibition was “inconclusive”. For `COc1ccccc1C(=O)N1CCN(c2ccccn2)CC1`, the inhibition was “inconclusive”. With `c1ccc(N2CCN(c3ccccc3)C2c2ccncc2)cc1` the inhibition was inactive: -0.2%. For `CN(C)CCCO/N=C(\c1ccccc1)c1ccncc1`, the inhibition was “inconclusive”. In the case of `OC(COC(c1ccccc1)c1ccccc1)CN1CCN(c2cccc(Cl)c2)CC1` (configuration not stated), the inhibition was active: 68%. In the case of `C/C(=N\OCC(=O)NC12CC3CC(CC(C3)C1)C2)c1cc2ccccc2o1`, the inhibition was “inconclusive”. With `O=[N+]([O-])c1cc([N+](=O)[O-])c(Oc2c(F)cccc2F)cc1NN1CCCCC1` the inhibition was active: 77.8%. In the case of `C=CCn1c(C(CCCC)CC(O)COCC(C)C)n[nH]c1=S` (configuration not stated), the inhibition was “inconclusive”. In the case of `CCCNC(=O)C1(C)CCCN(C(=O)c2c(F)ccc(C)c2F)C1` (configuration not stated), the inhibition was “inconclusive”. In the case of `Cc1cc(N2C(=O)NC(=O)CC2C)c(C)cc1C(C)C` (configuration not stated), the inhibition was “inconclusive”. In the case of `O=C(N/N=C/c1ccc(O)cc1)c1cccc(C(F)(F)F)c1`, the inhibition was “inconclusive”. With `COc1ccc(OC)c(S(=O)(=O)NC2CC(=O)N(c3cccc(F)c3)C2)c1` (configuration not stated) the inhibition was inactive: 1.3%. For `CCOC(=O)C1(Cc2cccc(OC)c2)CCN(C(C)COC)CC1` (configuration not stated), the inhibition was inactive: -0.5%. For `Cc1cc(Cl)n2nc(C)c(-c3ccc(Cl)cc3)c2n1`, the inhibition was inactive: 1%. For `O=C(CSc1n[nH]c(-c2cccs2)n1)N1CCCc2ccccc21`, the inhibition was “inconclusive”.
